Assay results: PubChem BioAssay AID2417 (National Center for Advancing Translational Sciences (NCATS), 2010)
Hit rate of the full screen: of about 140,000 compounds, about 4,300 (3.1%) were called active. The shares of active, inactive and inconclusive entries below differ from those in the screen.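 How the source made its calls: active means readout at or below -70, meaning at least 70% loss of cells showing the perinucleolar compartment, a nuclear body marking cancer cells; inconclusive means readout between -30 and a set limit; inactive means the rest.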

assay: High Content Assay for Compounds that inhibit the Assembly of the Perinucleolar Compartment; conditions: PC3M PTB-GFP, PNC prevalence imaging, 16 h; at 10 µM; stronger effect = lower value;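 further: plate controls were DMSO wells for no effect and camptothecin positive control wells for full effect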
Summary of the method: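 PC3M cells stably expressing PTB-GFP, 750–1000 cells/well, treated 16 h at 37 °C with compound (23 nl of library stock), in duplicate. After paraformaldehyde fixation and Hoechst stain, imaged at 20x; PNC prevalence scored by image analysis.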

Compound | activity change (PNC), negative = inhibition
Cc1ccc(N2CCN(CCCCN3C(=O)C4CCCN4C3=O)CC2)cc1 (configuration not stated) | inconclusive: -30.4%
O=C(CNC(=O)OCc1ccccc1)NCC(=O)N1CCCC1C(=O)OCc1ccccc1 (configuration not stated) | inactive: 21.5%
CCN1C(=O)/C(=C/C=C2/Sc3ccc4ccccc4c3N2CCO)SC1=S | inconclusive: -47.6%
Nc1nc(SCc2ccccc2)[nH]c(=O)c1-c1ccccc1 | inactive: -17.9%
CCCOCC1CC(CCc2nc(=S)[nH][nH]2)C(=O)O1 (configuration not stated) | inactive: -7.71%
CCOc1ccccc1NC(=O)c1ccccc1-c1nc(-c2ccccc2OC)no1 | inactive: 5.47%
Nc1nc(Nc2ccc(Cl)cc2)nc2ccccc12 | inconclusive: -73.8%
Oc1oc(-c2cccc3ccccc23)nc1/C=N/c1nccs1 | inconclusive: -45%
CCOC(=O)N1N=C(c2ccc(C)cc2)CC1(O)C(F)(F)F (configuration not stated) | inconclusive: -45.6%
CCCc1cc(=O)n2[nH]c(Cc3ccccc3)nc2n1 | inactive: 19%
Cc1ccccc1NC1=C(Cl)C(=O)OC1OC(C)C (configuration not stated) | inconclusive: -58.7%
O=C(N/N=C/c1ccncc1)c1cc(Br)ccc1OCc1ccccc1 | inactive: 20.4%
O=C(CCCC(=O)OCC(=O)c1ccc(F)cc1)Nc1cc(C(F)(F)F)ccc1Cl | inconclusive: -39.3%
CSc1nc(NC(C)(C)C)nc(Oc2ccc(=O)[nH]n2)n1 | inconclusive: -55.3%
Cc1ccc(C(=O)N/C(N)=N/c2nc3ccccc3o2)cc1 | inconclusive: -72.7%
COC(=O)c1sccc1-c1ccc(/C=N/OC(=O)c2ccccc2)o1 | inconclusive: -33.9%
COc1ccc(OC(=O)c2ccc3nsnc3c2)cc1 | inconclusive: -30.4%
COc1ccc(-c2nnc(SCC(=O)N3c4ccccc4Sc4ccccc43)o2)cc1 | active: -100%
O=C(COC(=O)c1ccc([N+](=O)[O-])s1)Nc1ncc(C(F)(F)F)cc1Cl | inconclusive: -44.5%
COc1ccc(NC(=O)C2CC2)cc1-n1cnnn1 | inactive: 7.55%
O=c1cc(-c2ccc([N+](=O)[O-])cc2)nc2cc(-c3ccc(Cl)cc3)[nH]n12 | inconclusive: -32.5%
N#CCC(=O)Nc1ncn(Cc2ccccc2Cl)n1 | active: -81.3%
Cc1ccc(C)c(NC(=O)CCCCCCCCCCC2COCCO2)c1 (configuration not stated) | inconclusive: -47.5%

Compound | activity change (PNC), negative = inhibition
CCN(CC)c1ccc(NC(=O)c2ccc(Cl)nc2)cc1 | inconclusive: -36.8%
Cc1ccc(S(=O)(=O)N(CC(=O)N2CCOCC2)C2CCCCC2)cc1 | inconclusive: -33%
O=c1c2c3c(sc2nc(NCCO)n1Cc1ccco1)CCCCC3 | inconclusive: -38.9%
Cc1ccc(N=N/C(=C\O)C(=O)c2ccncc2)cc1 | inactive: 62.4%
CCCCCn1c(CN(C)Cc2ccccc2)nc2c1c(=O)n(C)c(=O)n2C | inconclusive: -30.3%
NC(=O)C1CCN(C(=O)c2ccco2)CC1 | active: -80.5%
Cc1cc(C)nc(NC(=O)c2ccc(Cl)c(Cl)c2)n1 | inconclusive: -66.1%
CCCN1C(=O)C(O)(CC(=O)c2ccc3c(c2)OCCO3)c2ccccc21 (configuration not stated) | inconclusive: -42.7%
CCC(=O)Nc1cccc(NC(=S)NC(=O)c2ccccc2)c1 | inactive: 48.2%
Cc1ccc2nc(-c3ccccc3)cc(C(=O)N3CCc4ccccc4C3)c2c1 | inconclusive: -35.7%
CC(=O)N1N=C(c2ccncc2)OC12CCCC2 | inconclusive: -53.8%
CC1(C(=O)CSc2nc3ccccc3[nH]2)CCC(=O)O1 (configuration not stated) | active: -100%
Cc1cccc(OCc2nnc(SCC(=O)N3c4ccccc4Sc4ccc(Cl)cc43)o2)c1 | inconclusive: -48.5%
Cc1cc(C)c(S(=O)(=O)c2c(C)cccc2C)c(OCC(C)C)n1 | inconclusive: -51.2%
Cc1ccc(N2C(=O)c3cccc(Oc4ccc(Cl)cc4)c3C2=O)c(C)c1 | inconclusive: -52.5%
CC(C)Cn1c(CCCNC(=O)c2ccc(F)cc2)nc2ccccc21 | inconclusive: -45.7%
COc1cc(C=C(c2nc3ccccc3s2)c2nc3ccccc3s2)cc(OC)c1O | inconclusive: -37.8%
Cc1cccc(NC(=O)CN2C(=O)COc3ccc(Cl)cc32)c1C | inconclusive: -46.1%
O=C(Nc1nc2c(s1)CCCC2)c1nn(Cc2ccccc2)c(=O)c2ccccc12 | inconclusive: -33.8%
COc1ccc(OCC(=O)O/N=C(\N)Cc2cccs2)cc1 | inactive: 14.5%
O=C1C(=O)N(CCN2CCOCC2)C(c2ccncc2)/C1=C(/O)c1ccc2c(c1)OCO2 (configuration not stated) | inconclusive: -39.1%
COc1cccc(NC2=Nc3cccc4cccc2c34)c1 | inconclusive: -47.9%
CCc1nc(N2CCN(c3nc(C)cc(C)n3)CC2)c2oc3ccccc3c2n1 | inactive: -21.5%

Some of the entries so far, field by field.
Cc1ccc(N2CCN(CCCCN3C(=O)C4CCCN4C3=O)CC2)cc1 (configuration not stated)
  activity change (PNC), negative = inhibition: inconclusive: -30.4%
CCCc1cc(=O)n2[nH]c(Cc3ccccc3)nc2n1
  activity change (PNC), negative = inhibition: inactive: 19%

Continuation.

Compound | activity change (PNC), negative = inhibition
Cc1ccc(NC(=O)CCC(C(=O)O)N2C(=O)c3ccccc3C2=O)cc1 (configuration not stated) | inconclusive: -43.2%
O=C(COc1ccccc1)NCC(=O)N/N=C/c1cc(Br)ccc1OCc1ccccc1 | inconclusive: -31.4%
Cc1ccc(-n2nc(-c3cccs3)cc2C(=O)NCC2CCCO2)c(C)c1 (configuration not stated) | inactive: 18.2%
CCOC(=O)Cc1csc(NC(=O)CSc2nnnn2-c2ccc(F)cc2)n1 | inconclusive: -30.4%
CC(=O)Nc1ccc(OCC(=O)NCCc2ccc(Cl)cc2)cc1 | inconclusive: -65.8%
COc1ccccc1N(CC(O)COc1ccccc1C)S(=O)(=O)c1ccccc1 (configuration not stated) | inconclusive: -44.4%
Cc1ccc(S(=O)(=O)N2CCN(CC(=O)N(CC(C)C)c3c(N)n(CC(C)C)c(=O)[nH]c3=O)CC2)c(C)c1 | active: -97.6%
CC(NC(=O)/C=C/c1ccco1)c1nc2ccccc2n1Cc1cccc(Cl)c1 (configuration not stated) | inactive: 6.32%
CCOC(=O)C1=C(NC(=S)NC(=O)c2ccccc2)c2ccccc2CC1(C)CC (configuration not stated) | inconclusive: -76.6%
C(=C\c1ccccc1)/C=N/n1cnnc1 | inactive: 41.6%
CC(C)N(Cc1ccccc1)S(=O)(=O)N(C)C | inconclusive: -56%
Cc1ccc2[nH]c(=O)c(CN(CCCN3CCOCC3)Cc3nnnn3C3CCCC3)cc2c1 | active: -100%
Cc1cnc(C(=O)Nc2ccc(N3CCN(C(=O)OC(C)(C)C)CC3)cc2)cn1 | inconclusive: -60.5%
COc1ccccc1C1CC(c2c(-c3ccccc3)c3cc(Cl)ccc3[nH]c2=O)=NN1S(C)(=O)=O (configuration not stated) | inactive: 28.9%
COCc1nc2ccccc2n1CCOc1ccccc1OC | inconclusive: -33.9%
CCCCCCn1c(CN2CCN(CCO)CC2)nc2c1c(=O)n(C)c(=O)n2C | inactive: 45.9%
COC(=O)c1ccc(NC(=S)Nc2ccccc2)cc1 | inactive: 44.6%
COc1ccc(N2CCN(C(=O)CCc3ccc(S(=O)(=O)NCC(C)C)cc3)CC2)cc1 | inconclusive: -33.5%
CCOc1ccc(CNC(=S)N/N=C/c2ccc(OC)c(OC)c2)cc1 | inconclusive: -37.1%
O=C(NCc1ccco1)c1nc2ncccn2n1 | inconclusive: -55.9%
Cc1cc(-c2ccccc2)c(C#N)c(SCC(N)=O)n1 | inactive: 12.6%
Cc1sc2ncn(CC(=O)NCc3ccccn3)c(=O)c2c1S(=O)(=O)N1CCOCC1 | active: -100%
COc1ccc(CCNS(=O)(=O)c2ccc3c(c2)CCN3C(=O)CCC(=O)O)cc1OC | inconclusive: -56.9%

Compound | activity change (PNC), negative = inhibition
Cc1c(C(=O)Nc2c(C)n(C)n(-c3ccccc3)c2=O)oc2ccccc12 | inconclusive: -63.8%
CCCc1cc2c(c(NC(C)=O)n1)c(=O)oc1ccccc12 | inconclusive: -32.6%
COc1cc2c(cc1OC)C(C)N(C(=O)c1ccc(Br)o1)CC2 (configuration not stated) | inactive: -6.44%
O=C(NCc1cccs1)C1CCCCC1 | inconclusive: -36.4%
CCC(C)NC(=O)NC1C(NC(=O)NC(C)CC)N(C)C(=O)N1C (configuration not stated) | inconclusive: -33.3%
Cc1ccc(CC2SC(=O)NC2=O)cc1Cl (configuration not stated) | active: -100%
O=C(O)CCc1ccc(-c2ccccc2)o1 | inconclusive: -56.2%
Cn1nc(CC(=O)NC2CCCCCC2)c2ccccc2c1=O | inactive: 7.82%
CCSc1nc2c(c(=O)[nH]c(=O)n2C)n1C/C=C(/C)Cl | inactive: 27.9%
O=C(Nc1nc2ccccc2n1CCN1CCCCC1)C1CCCCC1 | inconclusive: -56.9%
CCc1c(C)nc2ncnn2c1N1CCCC(C(=O)NCCc2ccccc2)C1 (configuration not stated) | inconclusive: -40.8%
CCOC(=O)c1sc2nc(-c3ccccc3)ccc2c1N | inactive: -29.8%
C#CCSc1nnc(-c2ccc(OC)cc2)o1 | inconclusive: -44.6%
O=C(c1ccc2snnc2c1)N1CCN(c2ccccc2)CC1 | inconclusive: -55.1%
COCCCn1c(SCc2nnc(-c3ccccc3)o2)nc2sc3c(c2c1=O)CCC3 | inconclusive: -32.9%
CCN1CCCC1CNC(=O)C(NC(=O)C1CCC(C)CC1)C(C)C (configuration not stated) | inactive: -13.7%
Brc1ccccc1-c1nnc(-c2cccnc2)o1 | active: -81.2%
CCN(CC)C(=O)Cn1c(=O)n(CCCCCC(=O)Nc2ccccc2)c(=O)c2sccc21 | active: -113%
c1ccc(OCCCN2CCCC2)cc1 | inconclusive: -67.9%
CCCC1CCc2c(sc(NC(=O)c3cccs3)c2C(N)=O)C1 (configuration not stated) | inconclusive: -47.6%
CCOC(=O)C(NC(=O)CC)C(O)c1cccc([N+](=O)[O-])c1 (configuration not stated) | inconclusive: -55%
COc1cccc(CNC(=O)Cn2cc3c(n2)CCCCC3)c1 | inconclusive: -38.1%
O=C1CN(c2nc(-c3ccccc3)c3cc(Cl)ccc3n2)c2ccccc2N1 | inconclusive: -70.5%

Gathered by group, the compounds so far containing a CF3 group.
Compound | activity change (PNC), negative = inhibition
CCOC(=O)N1N=C(c2ccc(C)cc2)CC1(O)C(F)(F)F (configuration not stated) | inconclusive: -45.6%
O=C(CCCC(=O)OCC(=O)c1ccc(F)cc1)Nc1cc(C(F)(F)F)ccc1Cl | inconclusive: -39.3%
O=C(COC(=O)c1ccc([N+](=O)[O-])s1)Nc1ncc(C(F)(F)F)cc1Cl | inconclusive: -44.5%
